The record followed here is patent US20260297042A1, “BIARYLAMIDE DERIVATIVES AND THEIR USE AS PKMYT1 INHIBITORS” (CANCER RESEARCH TECHNOLOGY LIMITED, priority 2023, published 2026).

Protein sequences, listed by entry. Tags and fused reporters are not part of them. Residues count along the entry.
UniProt Q99640, 75-362 limits assumed: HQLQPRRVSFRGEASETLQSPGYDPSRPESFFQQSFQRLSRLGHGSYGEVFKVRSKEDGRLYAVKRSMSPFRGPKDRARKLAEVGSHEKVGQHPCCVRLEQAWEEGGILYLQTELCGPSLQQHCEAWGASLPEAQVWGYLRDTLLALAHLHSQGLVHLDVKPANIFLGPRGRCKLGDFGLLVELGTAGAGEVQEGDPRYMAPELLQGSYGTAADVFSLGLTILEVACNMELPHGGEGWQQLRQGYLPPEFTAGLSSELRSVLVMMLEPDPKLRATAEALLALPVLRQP
UniProt P30291, whole entry: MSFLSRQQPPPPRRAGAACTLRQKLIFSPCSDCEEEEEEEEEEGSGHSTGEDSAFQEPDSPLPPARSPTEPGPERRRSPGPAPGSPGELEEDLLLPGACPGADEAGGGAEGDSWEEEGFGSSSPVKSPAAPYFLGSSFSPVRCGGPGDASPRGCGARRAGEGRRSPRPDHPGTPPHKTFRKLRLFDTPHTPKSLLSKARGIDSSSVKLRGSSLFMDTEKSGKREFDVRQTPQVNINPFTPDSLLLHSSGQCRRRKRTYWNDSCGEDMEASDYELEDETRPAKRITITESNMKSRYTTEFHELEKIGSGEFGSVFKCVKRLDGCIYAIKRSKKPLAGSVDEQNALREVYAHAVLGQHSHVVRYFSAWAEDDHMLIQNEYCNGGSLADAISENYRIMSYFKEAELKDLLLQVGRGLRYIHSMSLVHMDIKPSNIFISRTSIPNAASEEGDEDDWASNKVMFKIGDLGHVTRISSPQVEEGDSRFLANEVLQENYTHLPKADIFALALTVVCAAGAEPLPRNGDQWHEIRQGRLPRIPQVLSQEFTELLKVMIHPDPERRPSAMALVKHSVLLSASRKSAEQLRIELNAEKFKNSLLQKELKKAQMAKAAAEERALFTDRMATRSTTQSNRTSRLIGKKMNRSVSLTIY

Experiment [1] deals with Human PKMYT1 (Homo sapiens, UniProt Q99640). Briefly: PKMYT1 biochemical ADP-Glo enzymatic assay. Particulars: read-out: PKMYT1 IC50, 15 nM PKMYT1 kinase domain, 500 µM ATP, 60 minutes at 26° C., banded. As to the method:
Human PKMYT1 75-362 was cloned as a TEV cleavable 6xHis fusion in bacterial cells. After purification on a Ni++HiTrap Chelating HP column, the His-tag was cleaved using TEV protease. Cleaved PKMYT1 was further purified on a Superdex 200 16/600 sizing column. The fractions containing PKMYT1 were pooled and concentrated using an ultrafiltration centrifugal protein concentrator. The purified protein was aliquoted, flash frozen in liquid nitrogen, and stored at −80° C.
PKMYT1 biochemical assay: Inhibition of PKMYT1 was assessed using the ADP-Glo™ Max Detection System from Promega. This assay detects the production of ADP from ATP by PKMYT1 via a two-step process ultimately involving the conversion of ADP to ATP with the latter converted to light in a coupled reaction with luciferase/luciferin. Inhibition of PKMYT1 by small molecule inhibitors results in a retardation of luminescence above background. The intrinsic ATPase activity of PKMYT1 was assessed according to the following protocol. […] After 60 minutes the luminescence signal was read on a PHERAStar FS microplate reader (BMG Labtech).
Data analysis: Data was captured and analysed within the Dotmatics Studies software module where dose response curves were generated and IC50 values determined. […]
In general terms: ADP-Glo first removes unused ATP, then detects ADP through luciferase.

The target in experiment [2] is WEE1 (Homo sapiens, UniProt P30291). Kind of experiment: Selectivity versus WEE1 assay (ADP-Glo enzymatic assay). The note with it: banded; for PKMYT1 vs. WEE1 selectivity: fold difference in selectivity for PKMYT1 over WEE1, ">N" = at least in this band but could be higher; for pIC50: read-out: WEE1 IC50, ADP-Glo, 15 nM WEE1, 30 µM ATP, 60 minutes at 26° C. As to the method: Selectivity versus WEE1 assay: Selectivity was established using the same format as outlined for PKMYT1. After dosing of compounds via the Echo acoustic dispenser—as described above—WEE1 (Thermo Fisher PR7373A) was added to each well at a final concentration of 15 nM in a buffer of 50 mM HEPES (pH 7.5), 10 mM MgCl2, 1 mM EGTA, 0.01% Brij-35, 1% DMSO. 30 µM ATP was added to start the reaction with the final assay volume being 4 μl. The plate was then incubated for 60 minutes at 26° C. before the addition of 4 μl of ADP-Glo Reagent. Following a further 60 minute incubation the assay signal was developed by the addition of 8 μl ADP-Glo Detection Reagent. After 60 minutes the luminescence signal was read on a PHERAStar FS microplate reader (BMG Labtech).
Data analysis: Data was captured and analysed within the Dotmatics Studies software module where dose response curves were generated and IC50 values determined. Acceptance and verification of data followed strict in-house business rules which are summarised as follows. […] Technical and biological replicates of each compound are routinely tested and replicate IC50 values must fall within 3-fold of each other with dose response curves showing ‘goodness of fit’ r2 values >0.9. Failure to meet any of these defined criteria result in rejection of data.

pIC50: −log10 of the molar value. The structures given here were assigned with low confidence; some may be wrong.

The term pIC50 denotes −log10 of the IC50, conventionally taken in molar units. For the molecule `CCCCn1nc(Nc2ncc(C(=O)Nc3c(C)ccc(O)c3C)s2)cc1C`, the pIC50 in experiment [1] was 6.00 to 7.30. Moreover, in experiment [2], the “PKMYT1 vs. WEE1 selectivity” value is on record as “W (10-<100 fold)” and the pIC50 was under 4.96.
Turning to `CCCCn1nc(C)cc1Nc1ncc(C(=O)Nc2c(C)ccc(O)c2C)s1`, the pIC50 in experiment [1] was over 7.30. Also, in experiment [2], the “PKMYT1 vs. WEE1 selectivity” value is reported as “Y (1000-5000 fold)” and the pIC50 was under 4.96.
